Results deposited as PubChem BioAssay AID1259307 (Sanger Institute, 2017).
The deposit covers 794 reagents; shown is a part drawn at random. In the full data, 15 (1.9%) were called active. 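Calls reflect lethality without any drug; synergy scores did not enter the calls.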 No viability above 1 is reported: the scale is capped. Not all columns of the deposit are shown. Reagent sequences are not shown. Not stated in the record: the amount of reagent, the time to read-out.

Aim: 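siRNA kinome screen seeking kinases whose loss harms SW620 cells alone or with drugs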 (primary screen)
Cell system: SW620 colorectal cancer cells
Reagents: siRNA pool against human genes
Challenge: anchor drugs BYL719 at 1 µM, cetuximab at 5 µg/ml or trametinib at 10 nM, each beside a DMSO vehicle arm
Measured: 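Per-well viability versus non-targeting control pool, replicate-averaged, robust z-score from controls; synergy scores for BYL719 1 µM, cetuximab 5 µg/ml, trametinib 10 nM against DMSO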
Direction: viability robust z-score, no drug and viability vs control, no drug: higher = more viable cells
Call rule: 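a knock-down counts as lethal alone if its drug-free robust viability z-score is lower than -3, regardless of synergy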
Calls: active = essential (lethal alone); inactive = no change alone

ADK (adenosine kinase)
- viability robust z-score, no drug: -0.0259
- viability vs control, no drug: 0.93
- Call: inactive

LCK (LCK proto-oncogene, Src family tyrosine kinase)
- viability robust z-score, no drug: -1.02
- viability vs control, no drug: 0.838
- Call: inactive

SNRK (SNF related kinase)
- viability robust z-score, no drug: -1.26
- viability vs control, no drug: 0.816
- Call: inactive

BCOR (BCL6 corepressor)
- viability robust z-score, no drug: -0.661
- viability vs control, no drug: 0.871
- Call: inactive

JAK1 (Janus kinase 1)
- viability robust z-score, no drug: 0.736
- viability vs control, no drug: 1
- Call: inactive

PCK1 (phosphoenolpyruvate carboxykinase 1)
- viability robust z-score, no drug: -3.03
- viability vs control, no drug: 0.652
- Call: active

Quoted from the entries so far (2 entries):
LCK (LCK proto-oncogene, Src family tyrosine kinase)
- viability robust z-score, no drug: -1.02
- viability vs control, no drug: 0.838
- Call: inactive

SNRK (SNF related kinase)
- viability robust z-score, no drug: -1.26
- viability vs control, no drug: 0.816
- Call: inactive

Additional records:
FES (FES proto-oncogene, tyrosine kinase)
- viability robust z-score, no drug: -0.323
- viability vs control, no drug: 0.902
- Call: inactive

MAPK15 (mitogen-activated protein kinase 15)
- viability robust z-score, no drug: -1.36
- viability vs control, no drug: 0.806
- Call: inactive

MAP3K7 (mitogen-activated protein kinase kinase kinase 7)
- viability robust z-score, no drug: 0.2
- viability vs control, no drug: 0.951
- Call: inactive

STK40 (serine/threonine kinase 40)
- viability robust z-score, no drug: 0.736
- viability vs control, no drug: 1
- Call: inactive

EIF2AK4 (eukaryotic translation initiation factor 2 alpha kinase 4)
- viability robust z-score, no drug: -0.466
- viability vs control, no drug: 0.889
- Call: inactive

BMPR1B (bone morphogenetic protein receptor type 1B)
- viability robust z-score, no drug: 0.0417
- viability vs control, no drug: 0.936
- Call: inactive
